These are yes or no findings as the source states them, for the method shown. A result given as binding can be weak or reduced; the word gives no strength. Sequences can lack the tags named with a protein.
biological target: T1, GST-RalA (simian) (UniProt P63320); experiment: pull-down; GST-RalA loaded with GDP as bait; purified 6xHis-ERp57 or mutants; Western blot with anti-6xHis antibody; with or without 1 mM DTT; both purified
T1 sequence: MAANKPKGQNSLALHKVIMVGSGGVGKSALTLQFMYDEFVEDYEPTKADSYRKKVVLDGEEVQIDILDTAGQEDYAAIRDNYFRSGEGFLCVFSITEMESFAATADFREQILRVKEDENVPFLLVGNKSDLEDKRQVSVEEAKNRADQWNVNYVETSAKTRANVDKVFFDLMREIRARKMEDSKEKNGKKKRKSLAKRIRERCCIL

The chains behind the UniProt entries cited, without tags or fusion partners. Where a name states a change or a piece, a line headed by the entry shows the natural chain unless it says otherwise.
UniProt P30101: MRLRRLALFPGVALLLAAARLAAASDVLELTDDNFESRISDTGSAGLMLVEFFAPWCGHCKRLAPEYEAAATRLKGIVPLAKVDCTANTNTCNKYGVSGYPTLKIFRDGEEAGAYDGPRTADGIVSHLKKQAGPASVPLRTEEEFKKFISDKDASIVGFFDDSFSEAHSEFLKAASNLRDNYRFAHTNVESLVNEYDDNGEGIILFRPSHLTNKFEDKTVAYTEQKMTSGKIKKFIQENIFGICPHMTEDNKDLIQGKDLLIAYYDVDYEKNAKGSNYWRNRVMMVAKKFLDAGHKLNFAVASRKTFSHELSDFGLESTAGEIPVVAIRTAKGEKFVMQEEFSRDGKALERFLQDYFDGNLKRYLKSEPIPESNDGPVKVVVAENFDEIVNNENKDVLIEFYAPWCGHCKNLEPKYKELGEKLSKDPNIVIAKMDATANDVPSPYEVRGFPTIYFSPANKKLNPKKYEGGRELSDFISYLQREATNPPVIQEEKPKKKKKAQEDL

Row | binding | Substance
1 | binds | 6xHis-ERp57 a domain mutant (from UniProt P30101)
2 | binds | 6xHis-ERp57 a' domain mutant (from UniProt P30101)
3 | binds | 6xHis-ERp57 a+a' double domain mutant (from UniProt P30101)
